Some of these results come from one statement about several compounds together. At least one compound was matched to its structure with a doubt left.
Each compound was assayed on Enterovirus D68 (assay: Antiviral assay, strains of Enterovirus D68 in RD cells (at least one strain)). Conditions: read-out: EC50 against at least one strain of Enterovirus D68.
Format: cell-based
Compound `CC(C)n1ncc2c(C(=O)Nc3cccc(S(=O)(=O)N(C)C)c3)cc(-c3cccs3)nc21` [JX-052] has an EC50 of under 1 µM. `CC(C)n1ncc2c(C(=O)Nc3ccc(F)cc3)cc(-c3ccco3)nc21` [JX-026] gave an EC50 of under 1 µM. In the case of `CC(C)n1ncc2c(C(=O)Nc3cccc(S(N)(=O)=O)c3)cc(-c3cccs3)nc21` [JX-025], the EC50 is reported as under 1 µM. In the case of `CC(C)n1ncc2c(C(=O)Nc3cncnc3)cc(-c3cccs3)nc21` [JX-066], the EC50 is reported as under 1 µM. `CC(C)n1ncc2c(C(=O)Nc3cccc(S(N)(=O)=O)c3)cc(C3CC3)nc21` [JX-055] was tested, and the EC50 was under 1 µM. `CC(C)n1ncc2c(C(=O)Nc3ccc(F)cc3F)cc(-c3cccs3)nc21` [JX-008] gave an EC50 of under 1 µM. `CC(C)n1ncc2c(C(=N)Nc3ccc(F)cc3)cc(-c3cccs3)nc21` [JX-067] was tested, and the EC50 was under 1 µM. `CC(C)n1ncc2c(C(=O)Nc3ccncn3)cc(-c3ccsc3)nc21` [JX-059] was tested, and the EC50 was under 1 µM. Compound `CC(C)n1ncc2c(C(=O)Nc3ccc(F)cc3)cc(-c3cccs3)nc21` [JX-017] has an EC50 of under 1 µM. For `CC(C)n1ncc2c(C(=O)Nc3ccccc3F)cc(-c3cccs3)nc21` [JX-001], the EC50 was under 1 µM. `CC(C)n1ncc2c(C(=O)Nc3ccccn3)cc(-c3cccs3)nc21` [JX-040] showed an EC50 of under 1 µM. `CC(C)n1ncc2c(C(=O)Nc3ccc(F)cc3)cc(-c3ccsc3)nc21` [JX-030] was tested, and the EC50 was under 1 µM. `CC(C)n1ncc2c(C(=O)Nc3ccc(S(C)(=O)=O)cc3)cc(-c3cccs3)nc21` [JX-047] showed an EC50 of under 1 µM. In the case of `CC(C)n1ncc2c(C(=O)Nc3cc(S(N)(=O)=O)ccc3F)cc(-c3cccs3)nc21` [JX-068], the EC50 is reported as under 1 µM. `CC(C)n1ncc2c(C(=O)N3CCc4cc(F)ccc43)cc(-c3cccs3)nc21` [JX-048] was tested, and the EC50 was under 1 µM.

From US11787799B2 (priority 2015, dated 2023)
